Reference: patent publication US20030211979A1 (Boehringer Ingelheim Pharma GmbH & Co. KG, priority 2002, published 2003)
The same purity stands for every peptide and may come from a single statement.

Assay: general procedure: hybrid (solid and solution phase) peptide synthesis; H-Gly-2-chlorotrityl-resin; TBTU/HOBt/diisopropylethylamine; HATU/diisopropylethylamine

Row | Substance | step yield (late stage modification step) [%] | final HPLC purity (late stage modification step) | final HPLC purity (coupling step) | conjugation yield (conjugation step) [%] | final HPLC purity (conjugation step)
1 | [2-(4-Carboxymethyl-phenyl)-acetyl]-Pro-Ala-Gly-Pro-Dox | 64 | HPLC>95% | – | – | –
2 | 4-Carboxymethylphenylacetyl-Pro-Ala-Gly-Pro-MNA | 48 | HPLC>95% | – | – | –
3 | H-Pro-Ala-Gly-Pro-Dox | 95 | HPLC>95% | – | – | –
4 | H-Pro-Ala-Gly-Pro-MNA | – | – | HPLC>95% | – | –
5 | Aloc-Pro-Ala-Gly-Pro-Dox | – | – | – | 81 | HPLC>95%
